20 targets from the supplement of paper PMC10849652 can be followed below.

The chains behind the UniProt entries cited, without tags or fusion partners. Where a name states a change or a piece, a line headed by the entry shows the natural chain unless it says otherwise.
UniProt P14406, whole entry, looked up: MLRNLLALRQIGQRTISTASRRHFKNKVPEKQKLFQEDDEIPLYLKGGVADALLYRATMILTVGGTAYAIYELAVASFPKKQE
UniProt Q12887: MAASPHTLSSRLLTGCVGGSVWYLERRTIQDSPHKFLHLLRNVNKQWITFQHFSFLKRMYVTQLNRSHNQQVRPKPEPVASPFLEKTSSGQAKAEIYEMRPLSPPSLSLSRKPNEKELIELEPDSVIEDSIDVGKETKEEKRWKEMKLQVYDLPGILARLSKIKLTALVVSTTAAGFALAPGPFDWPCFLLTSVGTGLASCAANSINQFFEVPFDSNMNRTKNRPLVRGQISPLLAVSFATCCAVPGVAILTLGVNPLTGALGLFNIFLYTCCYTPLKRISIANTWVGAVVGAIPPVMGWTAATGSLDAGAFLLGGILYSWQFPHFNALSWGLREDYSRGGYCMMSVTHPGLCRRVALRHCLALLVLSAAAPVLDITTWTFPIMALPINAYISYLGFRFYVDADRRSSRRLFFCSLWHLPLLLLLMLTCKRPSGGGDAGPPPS
UniProt O14810: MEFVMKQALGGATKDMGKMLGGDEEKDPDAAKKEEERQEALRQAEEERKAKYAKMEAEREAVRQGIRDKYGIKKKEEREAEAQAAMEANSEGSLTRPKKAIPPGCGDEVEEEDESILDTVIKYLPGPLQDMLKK
UniProt Q7Z7A1: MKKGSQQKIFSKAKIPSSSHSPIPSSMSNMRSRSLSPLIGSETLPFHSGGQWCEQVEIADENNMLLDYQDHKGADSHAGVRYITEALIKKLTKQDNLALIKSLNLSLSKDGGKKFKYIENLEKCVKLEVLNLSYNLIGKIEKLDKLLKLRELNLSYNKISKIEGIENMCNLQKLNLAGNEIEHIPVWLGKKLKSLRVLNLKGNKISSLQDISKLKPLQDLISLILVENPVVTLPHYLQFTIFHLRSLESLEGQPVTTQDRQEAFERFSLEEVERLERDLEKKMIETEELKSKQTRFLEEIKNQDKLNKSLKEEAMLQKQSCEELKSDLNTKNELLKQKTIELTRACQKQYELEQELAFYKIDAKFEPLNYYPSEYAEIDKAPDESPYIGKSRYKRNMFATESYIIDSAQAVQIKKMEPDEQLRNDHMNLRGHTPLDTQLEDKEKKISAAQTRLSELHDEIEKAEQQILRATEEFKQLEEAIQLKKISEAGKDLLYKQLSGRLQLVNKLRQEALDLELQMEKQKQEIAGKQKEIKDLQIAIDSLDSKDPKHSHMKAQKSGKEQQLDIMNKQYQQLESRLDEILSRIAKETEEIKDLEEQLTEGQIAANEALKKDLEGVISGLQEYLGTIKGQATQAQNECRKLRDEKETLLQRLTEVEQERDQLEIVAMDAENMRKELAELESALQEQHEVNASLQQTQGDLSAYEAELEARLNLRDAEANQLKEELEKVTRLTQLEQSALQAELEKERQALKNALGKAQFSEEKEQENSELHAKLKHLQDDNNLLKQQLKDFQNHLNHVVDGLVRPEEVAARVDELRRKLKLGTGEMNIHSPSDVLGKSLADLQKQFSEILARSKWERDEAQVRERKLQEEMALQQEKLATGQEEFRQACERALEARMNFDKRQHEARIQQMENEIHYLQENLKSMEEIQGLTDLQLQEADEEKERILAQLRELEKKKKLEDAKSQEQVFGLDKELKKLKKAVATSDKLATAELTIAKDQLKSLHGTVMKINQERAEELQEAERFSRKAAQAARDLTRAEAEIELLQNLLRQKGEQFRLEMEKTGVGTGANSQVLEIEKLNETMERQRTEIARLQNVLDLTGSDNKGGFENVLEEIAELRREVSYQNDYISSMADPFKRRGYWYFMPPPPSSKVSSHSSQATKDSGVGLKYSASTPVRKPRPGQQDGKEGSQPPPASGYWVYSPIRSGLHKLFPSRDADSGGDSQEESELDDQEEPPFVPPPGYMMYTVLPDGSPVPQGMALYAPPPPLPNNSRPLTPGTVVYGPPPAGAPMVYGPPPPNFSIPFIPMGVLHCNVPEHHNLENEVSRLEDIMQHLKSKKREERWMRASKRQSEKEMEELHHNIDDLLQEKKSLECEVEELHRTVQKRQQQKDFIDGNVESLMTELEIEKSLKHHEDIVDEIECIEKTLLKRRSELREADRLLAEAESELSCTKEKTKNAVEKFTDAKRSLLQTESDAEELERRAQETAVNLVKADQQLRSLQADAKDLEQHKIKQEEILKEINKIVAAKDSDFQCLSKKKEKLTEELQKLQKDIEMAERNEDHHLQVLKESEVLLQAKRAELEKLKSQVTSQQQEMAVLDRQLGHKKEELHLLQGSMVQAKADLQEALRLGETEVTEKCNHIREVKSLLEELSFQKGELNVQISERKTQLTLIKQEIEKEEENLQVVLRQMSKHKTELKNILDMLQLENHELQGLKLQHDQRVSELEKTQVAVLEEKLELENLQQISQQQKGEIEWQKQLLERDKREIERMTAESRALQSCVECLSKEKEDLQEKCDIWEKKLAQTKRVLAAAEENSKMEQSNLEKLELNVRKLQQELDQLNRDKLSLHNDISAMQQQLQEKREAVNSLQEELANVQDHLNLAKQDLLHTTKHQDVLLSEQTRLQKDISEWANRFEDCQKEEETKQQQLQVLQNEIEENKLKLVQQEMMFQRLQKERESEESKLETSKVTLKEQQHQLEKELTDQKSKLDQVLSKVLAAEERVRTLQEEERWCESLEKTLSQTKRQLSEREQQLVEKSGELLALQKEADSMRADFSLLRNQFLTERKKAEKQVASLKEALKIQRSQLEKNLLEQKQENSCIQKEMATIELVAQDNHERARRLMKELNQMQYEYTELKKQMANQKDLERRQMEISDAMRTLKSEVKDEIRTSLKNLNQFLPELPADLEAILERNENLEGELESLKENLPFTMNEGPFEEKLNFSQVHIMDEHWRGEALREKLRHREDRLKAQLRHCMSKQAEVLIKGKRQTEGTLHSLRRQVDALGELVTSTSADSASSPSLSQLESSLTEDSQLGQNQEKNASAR
UniProt Q8IWV2: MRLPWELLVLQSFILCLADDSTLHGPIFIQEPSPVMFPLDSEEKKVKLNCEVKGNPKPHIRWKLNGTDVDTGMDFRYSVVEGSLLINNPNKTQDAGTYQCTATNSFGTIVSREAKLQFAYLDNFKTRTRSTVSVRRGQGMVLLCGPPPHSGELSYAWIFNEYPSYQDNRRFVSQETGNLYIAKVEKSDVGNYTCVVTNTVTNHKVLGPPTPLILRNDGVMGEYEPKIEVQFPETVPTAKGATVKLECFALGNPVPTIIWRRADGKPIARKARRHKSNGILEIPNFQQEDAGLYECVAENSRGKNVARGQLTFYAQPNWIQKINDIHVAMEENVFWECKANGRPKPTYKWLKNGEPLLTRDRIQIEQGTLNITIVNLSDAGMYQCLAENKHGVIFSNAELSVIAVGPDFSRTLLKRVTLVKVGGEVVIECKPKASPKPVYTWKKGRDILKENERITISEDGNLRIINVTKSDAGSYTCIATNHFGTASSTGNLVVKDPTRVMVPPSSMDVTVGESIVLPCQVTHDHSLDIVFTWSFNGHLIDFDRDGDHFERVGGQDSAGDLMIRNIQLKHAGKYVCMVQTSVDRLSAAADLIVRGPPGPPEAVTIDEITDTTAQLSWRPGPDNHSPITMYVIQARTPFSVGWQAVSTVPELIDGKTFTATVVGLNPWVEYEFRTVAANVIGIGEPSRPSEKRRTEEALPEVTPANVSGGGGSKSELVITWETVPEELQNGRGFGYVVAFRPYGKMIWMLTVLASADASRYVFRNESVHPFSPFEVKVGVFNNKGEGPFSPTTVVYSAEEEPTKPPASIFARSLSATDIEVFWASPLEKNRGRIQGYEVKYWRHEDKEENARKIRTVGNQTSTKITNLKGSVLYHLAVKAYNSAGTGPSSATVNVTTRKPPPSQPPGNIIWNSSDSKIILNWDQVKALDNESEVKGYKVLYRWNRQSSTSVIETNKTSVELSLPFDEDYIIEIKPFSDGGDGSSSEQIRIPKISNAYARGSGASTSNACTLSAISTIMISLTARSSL
UniProt Q8WXC6: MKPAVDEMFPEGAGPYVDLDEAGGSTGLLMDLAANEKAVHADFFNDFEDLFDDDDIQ
UniProt P02452, whole entry, looked up: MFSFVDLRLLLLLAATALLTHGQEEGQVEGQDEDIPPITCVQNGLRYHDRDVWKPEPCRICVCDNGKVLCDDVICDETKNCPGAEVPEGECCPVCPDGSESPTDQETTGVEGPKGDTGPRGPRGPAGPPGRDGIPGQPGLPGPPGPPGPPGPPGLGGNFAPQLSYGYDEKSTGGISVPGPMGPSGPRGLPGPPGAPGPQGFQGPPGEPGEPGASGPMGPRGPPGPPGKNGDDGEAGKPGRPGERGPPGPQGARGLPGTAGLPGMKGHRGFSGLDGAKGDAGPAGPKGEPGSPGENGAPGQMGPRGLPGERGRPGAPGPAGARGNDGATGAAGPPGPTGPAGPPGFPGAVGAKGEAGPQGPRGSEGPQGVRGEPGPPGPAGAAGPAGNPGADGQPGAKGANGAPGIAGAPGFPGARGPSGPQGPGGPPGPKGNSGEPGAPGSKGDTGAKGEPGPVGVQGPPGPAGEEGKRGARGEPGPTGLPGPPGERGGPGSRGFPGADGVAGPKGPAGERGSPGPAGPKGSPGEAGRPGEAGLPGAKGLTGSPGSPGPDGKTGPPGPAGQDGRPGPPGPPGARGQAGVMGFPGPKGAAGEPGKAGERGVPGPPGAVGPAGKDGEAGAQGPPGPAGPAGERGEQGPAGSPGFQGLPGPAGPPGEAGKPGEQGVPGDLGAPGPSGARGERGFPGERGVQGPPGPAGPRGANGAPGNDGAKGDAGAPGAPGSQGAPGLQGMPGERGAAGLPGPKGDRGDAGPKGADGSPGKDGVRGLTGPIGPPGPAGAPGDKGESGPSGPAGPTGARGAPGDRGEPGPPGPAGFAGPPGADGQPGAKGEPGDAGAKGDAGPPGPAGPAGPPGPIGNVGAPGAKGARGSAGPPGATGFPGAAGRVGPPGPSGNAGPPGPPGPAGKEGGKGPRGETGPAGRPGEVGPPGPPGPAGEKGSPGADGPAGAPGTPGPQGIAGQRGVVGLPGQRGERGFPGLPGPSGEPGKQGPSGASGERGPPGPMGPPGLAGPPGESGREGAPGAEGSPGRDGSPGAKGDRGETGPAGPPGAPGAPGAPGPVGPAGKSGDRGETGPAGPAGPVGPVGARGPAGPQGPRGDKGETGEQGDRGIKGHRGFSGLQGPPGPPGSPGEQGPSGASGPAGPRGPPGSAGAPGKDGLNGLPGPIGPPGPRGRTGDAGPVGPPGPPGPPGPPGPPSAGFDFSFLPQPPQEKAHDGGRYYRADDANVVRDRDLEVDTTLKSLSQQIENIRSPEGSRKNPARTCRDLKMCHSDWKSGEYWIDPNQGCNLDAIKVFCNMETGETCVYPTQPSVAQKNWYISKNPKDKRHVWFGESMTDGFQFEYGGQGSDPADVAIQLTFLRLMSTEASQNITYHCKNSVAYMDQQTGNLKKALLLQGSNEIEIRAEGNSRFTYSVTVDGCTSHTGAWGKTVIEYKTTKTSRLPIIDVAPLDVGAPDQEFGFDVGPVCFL
UniProt P12109: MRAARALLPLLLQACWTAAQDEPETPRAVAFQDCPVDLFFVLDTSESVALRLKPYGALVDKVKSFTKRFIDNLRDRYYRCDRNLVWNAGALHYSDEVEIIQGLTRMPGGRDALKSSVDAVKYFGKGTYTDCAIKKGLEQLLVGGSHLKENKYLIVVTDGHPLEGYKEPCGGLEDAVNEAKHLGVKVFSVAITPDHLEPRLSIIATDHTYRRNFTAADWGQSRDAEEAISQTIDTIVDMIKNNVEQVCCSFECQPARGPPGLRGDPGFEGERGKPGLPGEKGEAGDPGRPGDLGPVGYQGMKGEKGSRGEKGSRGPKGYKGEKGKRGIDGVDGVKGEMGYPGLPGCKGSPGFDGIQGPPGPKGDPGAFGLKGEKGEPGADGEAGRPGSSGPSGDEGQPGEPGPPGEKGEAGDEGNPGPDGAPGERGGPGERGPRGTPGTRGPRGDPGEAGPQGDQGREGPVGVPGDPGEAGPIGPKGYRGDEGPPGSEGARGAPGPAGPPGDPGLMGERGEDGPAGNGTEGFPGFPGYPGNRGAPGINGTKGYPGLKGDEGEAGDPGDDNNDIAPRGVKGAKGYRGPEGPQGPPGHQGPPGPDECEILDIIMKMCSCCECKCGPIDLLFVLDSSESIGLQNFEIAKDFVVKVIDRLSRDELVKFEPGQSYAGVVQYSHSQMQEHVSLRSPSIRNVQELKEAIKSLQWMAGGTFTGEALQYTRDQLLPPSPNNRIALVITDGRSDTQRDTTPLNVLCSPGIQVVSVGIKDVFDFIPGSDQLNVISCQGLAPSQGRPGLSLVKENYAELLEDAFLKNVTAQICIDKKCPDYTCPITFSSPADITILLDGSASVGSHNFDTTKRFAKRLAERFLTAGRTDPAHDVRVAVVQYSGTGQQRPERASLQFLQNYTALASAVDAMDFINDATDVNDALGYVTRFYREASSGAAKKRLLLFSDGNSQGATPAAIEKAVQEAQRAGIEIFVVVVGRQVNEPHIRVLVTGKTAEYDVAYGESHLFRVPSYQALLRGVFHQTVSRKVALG

Holding throughout (assay): log2 fold change, soluble protein after heating vs DMSO (PISA); higher = thermal stabilisation; K562 lysate, 10 uM; active = over 0.2 and 3.5 SD of the protein, either way, in both replicates (recomputed)
Compound in one test: C=CC(=O)N1CCC[C@@H](n2nc(-c3ccc(Oc4ccccc4)cc3)c3c(N)ncnc32)C1 [ibrutinib]
The gist of the method:
(§1)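 Log-two fold change in thermal stability relative to solvent controls is reported from duplicates. For each sample, crude K562 extract from dounce-homogenised pellets in PBS pH 7.4 with 1 mM MgCl2, at 1 mg/mL protein, was treated with 10 μM compound for 30 min. Aliquots heated for 3 min across 48°C-58°C were pooled, brought to 0.5% NP-40 at 4°C and cleared at 21,000xg for 90 min. The supernatant was quantified by TMTpro 16plex LC-MS/MS with channel sums equalised.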

Compound in test [1]: CC(=O)c1cnc2ccc(-c3cc(Cl)c(O)c(Cl)c3)nc2c1N[C@H]1CC[C@H](CN(C)C)CC1
The gist of the method: as §1

Compound in the next test: CC(C)(C)Cn1c(N)nc2ccc(-c3[nH]c(C(C)(C)C)nc3-c3ccc(F)cc3)nc21 [ralimetinib]
The gist of the method: as §1

Compound in test [2]: CC(C)(O)CC(=O)NCCn1ccc2ncnc(Nc3ccc(Oc4cccc(C(F)(F)F)c4)c(Cl)c3)c21
The gist of the method: as §1

Compound in test [3]: CC(C)C1=C2N=C(C=C(N2N=C1)NCC3=CC=CC=C3)NCCCCCCN
The gist of the method:
as §1

Compound in test [4]: CC1=C(C(CC(=O)N1)C2=CC=C(C=C2)C(F)(F)F)C(=O)NC3=C(C=C4C(=C3)C=NN4)F
The gist of the method: as §1

Compound in test [5]: CC1=C(C=C(C=C1)NC(=O)C2=CC(=CC=C2)C(C)(C)C#N)NC3=CC4=C(C=C3)N=CN(C4=O)C
The gist of the method: as §1

Compound in test [6]: CC1=C(C=C(C=C1)NC(=O)C2=CC(=CC=C2)N(C)C)NC(=O)C3=CC=C(C=C3)O
The gist of the method:
as §1

Compound in test [7]: CC1=CC=C(C=C1)SC2=C3C=C(SC3=CN=C2)C(=O)N
The gist of the method: as §1

Compound in test [8]: CC1=C(C2=C(C=C1)C(=O)C3=CC=CC=C3N2CCCN)C
The gist of the method:
as §1

The list shows a part of the results.

Turning to COX7A2 (UniProt P14406), the log2 fold change with ibrutinib was inactive: 0.038; in [1] it was inactive: -0.029; with ralimetinib, inactive: 0.016; in test [2], inactive: -0.075; in test [3], inactive: 0.027; in [4] it was inactive: -0.015. In addition, the log2 fold change was inactive: 0.087 in test [5], inactive: 0.022 in test [6] and inactive: -0.017 in test [7].

Regarding COX10 (UniProt Q12887), the log2 fold change was inactive: -0.04 with ralimetinib; inactive: 0.037 in test [2]; inactive: -0.19 in test [8]; inactive: 0.092 in [5]; inactive: -0.02 in test [6].

For CNOT2 (UniProt F8VRS8), the log2 fold change in test [3] is inactive: -0.001.

For CPLX1 (UniProt O14810), the log2 fold change in test [1] is inactive: -0.071; with ralimetinib, inactive: 0.079; in [2], inactive: -0.139; in [8] it was active: 0.874; in test [6] it was inactive: 0.037; in test [7], inactive: 0.119.

With CPLANE2 (UniProt Q9BU20), the log2 fold change in the test with ralimetinib is inactive: -0.319; in test [2], inactive: -0.114; in test [3], inactive: 0.178; in test [5], inactive: 0; in test [6], inactive: 0.115.

With CORO6 isoform 5 (UniProt Q6QEF8), the log2 fold change with ibrutinib is inactive: -0.003; in test [1] it was inactive: -0.065; in [4], inactive: -0.101; in [5], inactive: 0.113; in [7], inactive: -0.037.

Turning to CNTRL (UniProt Q7Z7A1), the log2 fold change with ibrutinib was inactive: -0.023; with ralimetinib it was inactive: 0.007; in test [2] it was inactive: -0.01; in test [3], inactive: 0.01; in test [4], inactive: 0.015; in test [8], inactive: -0.005. For the same target, the log2 fold change is inactive: 0.01 in test [5] and inactive: 0.019 in test [6].

With CORO7 (UniProt P57737), the log2 fold change was inactive: -0.039 with ralimetinib; inactive: 0.06 in test [2]; inactive: -0.076 in test [3]; inactive: -0.202 in test [4]; inactive: 0.067 in [8]; inactive: -0.229 in test [5]. Besides, the log2 fold change in test [6] was inactive: 0.134.

Turning to CNK3/IPCEF1 isoform 2 (UniProt G9CGD6), the log2 fold change in the test with ralimetinib is inactive: 0.215; in test [2], inactive: -0.138; in test [3], inactive: -0.096; in test [8], inactive: 0.075; in test [6] it was inactive: 0.

On to CNOT4 isoform 9 (UniProt O95628), for which the log2 fold change with ibrutinib was inactive: 0.052; in test [1] it was inactive: -0.019; with ralimetinib it was inactive: 0.043; in test [2], inactive: -0.084; in test [3] it was inactive: -0.003; in test [8], inactive: 0.032. The log2 fold change is inactive: -0.138 in test [5], inactive: -0.02 in test [6] and inactive: 0.013 in test [7].

In the case of COP1 (UniProt Q8NHY2), the log2 fold change in test [1] is inactive: -0.041; with ralimetinib, inactive: 0.039; in [2], inactive: -0.053; in test [3], inactive: 0.169; in test [4], inactive: -0.06; in [8] it was inactive: 0.036. The log2 fold change is inactive: -0.009 in test [5], inactive: -0.085 in [6] and inactive: 0.027 in [7].

Turning to COL25A1 (UniProt Q9BXS0), the log2 fold change with ibrutinib is inactive: 0.177; in test [1] it was inactive: 0.082; with ralimetinib it was inactive: -0.082; in test [2], inactive: -0.012; in [4], inactive: -0.024; in test [6], inactive: 0.143. The log2 fold change in [7] was inactive: -0.125.

Regarding COQ3 (UniProt Q9NZJ6), the log2 fold change in the test with ibrutinib was inactive: 0.055; in test [1] it was inactive: -0.043; with ralimetinib, inactive: -0.037; in test [2] it was inactive: 0.06; in test [3], inactive: -0.073; in test [4] it was inactive: 0.002. The log2 fold change in test [6] is inactive: 0.032; in [7], inactive: -0.044.

With COCH (UniProt O43405), the log2 fold change is inactive: 0.152 in the test with ibrutinib; inactive: -0.001 in test [1]; inactive: -0.024 in the test with ralimetinib; inactive: -0.114 in test [2]; inactive: -0.025 in test [3]; inactive: -0.043 in test [4]. Also, the log2 fold change in test [8] was inactive: -0.025; in test [5] it was inactive: -0.01; in [6], inactive: 0.038; in test [7], inactive: 0.021.

As to COPS2 (UniProt P61201), the log2 fold change was inactive: 0.019 in test [1]; inactive: 0.127 in [4]; inactive: -0.046 in [8]; inactive: -0.035 in test [5]; inactive: -0.097 in test [7].

Take CNTN4 (UniProt Q8IWV2): the log2 fold change in the test with ibrutinib was inactive: -0.043; in test [1], inactive: -0.154; in the test with ralimetinib it was inactive: -0.286; in test [2] it was inactive: -0.341; in test [3], inactive: 0.094; in test [4] it was inactive: -0.077. Further, the log2 fold change is inactive: 0.312 in test [5], inactive: -0.039 in test [6] and inactive: -0.141 in test [7].

For the target COQ8B (UniProt Q96D53), the log2 fold change in [3] was inactive: 0.151; in test [4], inactive: 0.162; in [5], inactive: 0.01.

Regarding COPS9 (UniProt Q8WXC6), the log2 fold change is inactive: -0.059 in test [1]; inactive: 0.146 with ralimetinib; inactive: -0.213 in test [2]; inactive: 0.173 in [3]; inactive: 0.172 in test [6]; inactive: -0.184 in test [7].

Turning to COL1A1 (UniProt P02452), the log2 fold change in test [3] is inactive: 0.001.

For COL6A1 (UniProt P12109), the log2 fold change in test [4] was inactive: -0.052.
